Results are given in words; binding and its absence hold for the method and conditions named. Binding seen in cells or lysates may run through a third protein. Here binding means that the protein was enriched with, or labelled near, the bait; the list need not be complete. Sequences can lack the tags named with a protein.
Target: ZAP-L-FL (FLAG-tagged ZAP-L) (human) (UniProt Q7Z2W4)
Test: affinity purification with mass spectrometry; ZAP-L-FL or empty vector transfected in 293T; IP with α-FLAG agarose from whole cell lysates (sonication) in the presence or absence of 30 μg/ml RNase; tandem MS; hits: 3 or more peptides, two replicate IPs, not in vector control

Sequences of proteins named here, by UniProt entry; tags and fusion partners are left off.
UniProt Q7Z2W4: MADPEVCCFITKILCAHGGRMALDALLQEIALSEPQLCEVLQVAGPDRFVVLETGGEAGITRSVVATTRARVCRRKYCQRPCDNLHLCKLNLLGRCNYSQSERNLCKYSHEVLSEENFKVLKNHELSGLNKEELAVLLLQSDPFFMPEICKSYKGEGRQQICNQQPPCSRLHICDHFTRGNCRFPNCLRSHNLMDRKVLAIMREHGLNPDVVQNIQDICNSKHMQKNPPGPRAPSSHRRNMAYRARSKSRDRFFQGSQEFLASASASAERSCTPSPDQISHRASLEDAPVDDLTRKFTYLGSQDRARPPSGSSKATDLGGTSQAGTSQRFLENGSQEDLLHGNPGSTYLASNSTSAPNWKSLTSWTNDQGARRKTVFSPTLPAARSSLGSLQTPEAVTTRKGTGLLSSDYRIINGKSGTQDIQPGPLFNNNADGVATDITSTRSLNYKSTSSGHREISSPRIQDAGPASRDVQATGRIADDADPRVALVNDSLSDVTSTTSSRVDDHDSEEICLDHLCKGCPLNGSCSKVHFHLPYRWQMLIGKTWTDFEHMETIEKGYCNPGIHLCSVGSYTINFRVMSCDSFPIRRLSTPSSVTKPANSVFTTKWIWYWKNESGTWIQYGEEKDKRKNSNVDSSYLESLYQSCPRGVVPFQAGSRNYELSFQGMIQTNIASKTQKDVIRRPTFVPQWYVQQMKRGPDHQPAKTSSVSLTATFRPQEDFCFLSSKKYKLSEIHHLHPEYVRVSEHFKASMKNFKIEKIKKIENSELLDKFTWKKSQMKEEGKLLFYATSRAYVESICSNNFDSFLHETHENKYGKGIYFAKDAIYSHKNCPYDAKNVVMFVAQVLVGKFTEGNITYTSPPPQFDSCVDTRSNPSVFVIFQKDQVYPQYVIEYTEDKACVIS

Binder | binding
Chaperonin containing TCP1, subunit 2 (beta) (protein, UniProt P78371-2 1-488) MDKILLSSGRDASLMVTNDGATILKNIGVDNPAAKVLVDMSRVQDDEVGDGTTSVTVLAAELLREAESLIAKKIHPQTIIAGWREATKAAREALLSSAVDHGSDEVKFRQDLMNIAGTTLSSKLLTHHKDHFTKLAVEAVLRLKGSGNLEAIHIIKKLGGSLADSYLDEGFLLDKKIGVNQPKRIENAKILIANTGMDTDKIKIFGSRVRVDSTAKVAEIEHAEKEKMKEKVERILKHGINCFINRQLIYNYPEQLFGAAGVMAIEHADFAGVERLALVTGGEIASTFDHPELVKLGSCKLIEEVMIGEDKLIHFSGVALGEACTIVLRGATQQILDEAERSLHDALCVLAQTVKDSRTVYGGGCSEMLMAHAVTQLANRTPGKEAVAMESYAKALRMLPTIIADNAGYDSADLVAQLRAAHSEGNTTAGLDMREGTIGDMAILGITESFQVKRQVLLSAAEAAEVILRVDNIIKAAPRKRVPDHHPC | binds
Chaperonin containing TCP1, subunit 3 (gamma) (protein, UniProt P49368-1 1-545) MMGHRPVLVLSQNTKRESGRKVQSGNINAAKTIADIIRTCLGPKSMMKMLLDPMGGIVMTNDGNAILREIQVQHPAAKSMIEISRTQDEEVGDGTTSVIILAGEMLSVAEHFLEQQMHPTVVISAYRKALDDMISTLKKISIPVDISDSDMMLNIINSSITTKAISRWSSLACNIALDAVKMVQFEENGRKEIDIKKYARVEKIPGGIIEDSCVLRGVMINKDVTHPRMRRYIKNPRIVLLDSSLEYKKGESQTDIEITREEDFTRILQMEEEYIQQLCEDIIQLKPDVVITEKGISDLAQHYLMRANITAIRRVRKTDNNRIARACGARIVSRPEELREDDVGTGAGLLEIKKIGDEYFTFITDCKDPKACTILLRGASKEILSEVERNLQDAMQVCRNVLLDPQLVPGGGASEMAVAHALTEKSKAMTGVEQWPYRAVAQALEVIPRTLIQNCGASTIRLLTSLRAKHTQENCETWGVNGETGTLVDMKELGIWEPLAVKLQTYKTAVETAVLLLRIDDIVSGHKKKGDDQSRQGGAPDAGQE | binds
Chaperonin containing TCP1, subunit 4 (delta) (protein, UniProt P50991-1 1-539) MPENVAPRSGATAGAAGGRGKGAYQDRDKPAQIRFSNISAAKAVADAIRTSLGPKGMDKMIQDGKGDVTITNDGATILKQMQVLHPAARMLVELSKAQDIEAGDGTTSVVIIAGSLLDSCTKLLQKGIHPTIISESFQKALEKGIEILTDMSRPVELSDRETLLNSATTSLNSKVVSQYSSLLSPMSVNAVMKVIDPATATSVDLRDIKIVKKLGGTIDDCELVEGLVLTQKVSNSGITRVEKAKIGLIQFCLSAPKTDMDNQIVVSDYAQMDRVLREERAYILNLVKQIKKTGCNVLLIQKSILRDALSDLALHFLNKMKIMVIKDIEREDIEFICKTIGTKPVAHIDQFTADMLGSAELAEEVNLNGSGKLLKITGCASPGKTVTIVVRGSNKLVIEEAERSIHDALCVIRCLVKKRALIAGGGAPEIELALRLTEYSRTLSGMESYCVRAFADAMEVIPSTLAENAGLNPISTVTELRNRHAQGEKTAGINVRKGGISNILEELVVQPLLVSVSALTLATETVRSILKIDDVVNTR | binds
DEAH (Asp-Glu-Ala-His) box polypeptide 30 (protein, UniProt Q7L2E3-3 1-1155) MAASRDLLKEFPQPKNLLNSVIGRALGISHAKDKLVYVHTNGPKKKKVTLHIKWPKSVEVEGYGSKKIDAERQAAAAACQLFKGWGLLGPRNELFDAAKYRVLADRFGSPADSWWRPEPTMPPTSWRQLNPESIRPGGPGGLSRSLGREEEEDEEEELEEGTIDVTDFLSMTQQDSHAPLRDSRGSSFEMTDDDSAIRALTQFPLPKNLLAKVIQIATSSSTAKNLMQFHTVGTKTKLSTLTLLWPCPMTFVAKGRRKAEAENKAAALACKKLKSLGLVDRNNEPLTHAMYNLASLRELGETQRRPCTIQVPEPILRKIETFLNHYPVESSWIAPELRLQSDDILPLGKDSGPLSDPITGKPYVPLLEAEEVRLSQSLLELWRRRGPVWQEAPQLPVDPHRDTILNAIEQHPVVVISGDTGCGKTTRIPQLLLERYVTEGRGARCNVIITQPRRISAVSVAQRVSHELGPSLRRNVGFQVRLESKPPSRGGALLFCTVGILLRKLQSNPSLEGVSHVIVDEVHERDVNTDFLLILLKGLQRLNPALRLVLMSATGDNERFSRYFGGCPVIKVPGFMYPVKEHYLEDILAKLGKHQYLHRHRHHESEDECALDLDLVTDLVLHIDARGEPGGILCFLPGWQEIKGVQQRLQEALGMHESKYLILPVHSNIPMMDQKAIFQQPPVGVRKIVLATNIAETSITINDIVHVVDSGLHKEERYDLKTKVSCLETVWVSRANVIQRRGRAGRCQSGFAYHLFPRSRLEKMVPFQVPEILRTPLENLVLQAKIHMPEKTAVEFLSKAVDSPNIKAVDEAVILLQEIGVLDQREYLTTLGQRLAHISTDPRLAKAIVLAAIFRCLHPLLVVVSCLTRDPFSSSLQNRAEVDKVKALLSHDSGSDHLAFVRAVAGWEEVLRWQDRSSRENYLEENLLYAPSLRFIHGLIKQFSENIYEAFLVGKPSDCTLASAQCNEYSEEEELVKGVLMAGLYPNLIQVRQGKVTRQGKFKPNSVTYRTKSGNILLHKSTINREATRLRSRWLTYFMAVKSNGSVFVRDSSQVHPLAVLLLTDGDVHIRDDGRRATISLSDSDLLRLEGDSRTVRLLKELRRALGRMVERSLRSELAALPPSVQEEHGQLLALLAELLRGPCGSFDVRKTADD | binds
DEAH (Asp-Glu-Ala-Asp/His) box polypeptide 57 (protein, UniProt Q6P158-1 1-1386) MSSSVRRKGKPGKGGGKGSSRGGRGGRSHASKSHGSGGGGGGGGGGGGGNRKASSRIWDDGDDFCIFSESRRPSRPSNSNISKGESRPKWKPKAKVPLQTLHMTSENQEKVKALLRDLQEQDADAGSERGLSGEEEDDEPDCCNDERYWPAGQEPSLVPDLDPLEYAGLASVEPYVPEFTVSPFAVQKLSRYGFNTERCQAVLRMCDGDVGASLEHLLTQCFSETFGERMKISEAVNQISLDECMEQRQEEAFALKSICGEKFIERIQNRVWTIGLELEYLTSRFRKSKPKESTKNVQENSLEICKFYLKGNCKFGSKCRFKHEVPPNQIVGRIERSVDDSHLNAIEDASFLYELEIRFSKDHKYPYQAPLVAFYSTNENLPLACRLHISEFLYDKALTFAETSEPVVYSLITLLEEESEIVKLLTNTHHKYSDPPVNFLPVPSRTRINNPACHKTVIPNNSFVSNQIPEVEKASESEESDEDDGPAPVIVENESYVNLKKKISKRYDWQAKSVHAENGKICKQFRMKQASRQFQSILQERQSLPAWEERETILNLLRKHQVVVISGMTGCGKTTQIPQFILDDSLNGPPEKVANIICTQPRRISAISVAERVAKERAERVGLTVGYQIRLESVKSSATRLLYCTTGVLLRRLEGDTALQGVSHIIVDEVHERTEESDFLLLVLKDIVSQRPGLQVILMSATLNAELFSDYFNSCPVITIPGRTFPVDQFFLEDAIAVTRYVLQDGSPYMRSMKQISKEKLKARRNRTAFEEVEEDLRLSLHLQDQDSVKDAVPDQQLDFKQLLARYKGVSKSVIKTMSIMDFEKVNLELIEALLEWIVDGKHSYPPGAILVFLPGLAEIKMLYEQLQSNSLFNNRRSNRCVIHPLHSSLSSEEQQAVFVKPPAGVTKIIISTNIAETSITIDDVVYVIDSGKMKEKRYDASKGMESLEDTFVSQANALQRKGRAGRVASGVCFHLFTSHHYNHQLLKQQLPEIQRVPLEQLCLRIKILEMFSAHNLQSVFSRLIEPPHTDSLRASKIRLRDLGALTPDERLTPLGYHLASLPVDVRIGKLMLFGSIFRCLDPALTIAASLAFKSPFVSPWDKKEEANQKKLEFAFANSDYLALLQAYKGWQLSTKEGVRASYNYCRQNFLSGRVLQEMASLKRQFTELLSDIGFAREGLRAREIEKRAQGGDGVLDATGEEANSNAENPKLISAMLCAALYPNVVQVKSPEGKFQKTSTGAVRMQPKSAELKFVTKNDGYVHIHPSSVNYQVRHFDSPYLLYHEKIKTSRVFIRDCSMVSVYPLVLFGGGQVNVQLQRGEFVVSLDDGWIRFVAASHQVAELVKELRCELDQLLQDKIKNPSIDLCTCPRGSRIISTIVKLVTTQ | binds
DEAD (Asp-Glu-Ala-Asp) box polypeptide 18 (protein, UniProt Q9NVP1 1-670) MSHLPMKLLRKKIEKRNLKLRQRNLKFQGASNLTLSETQNGDVSEETMGSRKVKKSKQKPMNVGLSETQNGGMSQEAVGNIKVTKSPQKSTVLTNGEAAMQSSNSESKKKKKKKRKMVNDAEPDTKKAKTENKGKSEEESAETTKETENNVEKPDNDEDESEVPSLPLGLTGAFEDTSFASLCNLVNENTLKAIKEMGFTNMTEIQHKSIRPLLEGRDLLAAAKTGSGKTLAFLIPAVELIVKLRFMPRNGTGVLILSPTRELAMQTFGVLKELMTHHVHTYGLIMGGSNRSAEAQKLGNGINIIVATPGRLLDHMQNTPGFMYKNLQCLVIDEADRILDVGFEEELKQIIKLLPTRRQTMLFSATQTRKVEDLARISLKKEPLYVGVDDDKANATVDGLEQGYVVCPSEKRFLLLFTFLKKNRKKKLMVFFSSCMSVKYHYELLNYIDLPVLAIHGKQKQNKRTTTFFQFCNADSGTLLCTDVAARGLDIPEVDWIVQYDPPDDPKEYIHRVGRTARGLNGRGHALLILRPEELGFLRYLKQSKVPLSEFDFSWSKISDIQSQLEKLIEKNYFLHKSAQEAYKSYIRAYDSHSLKQIFNVNNLNLPQVALSFGFKVPPFVDLNVNSNEGKQKKRGGGGGFGYQKTKKVEKSKIFKHISKKSSDSRQFSH | binds
Moloney leukemia virus 10, homolog (mouse) (protein, UniProt Q9HCE1-1 1-1003) MPSKFSCRQLREAGQCFESFLVVRGLDMETDRERLRTIYNRDFKISFGTPAPGFSSMLYGMKIANLAYVTKTRVRFFRLDRWADVRFPEKRRMKLGSDISKHHKSLLAKIFYDRAEYLHGKHGVDVEVQGPHEARDGQLLIRLDLNRKEVLTLRLRNGGTQSVTLTHLFPLCRTPQFAFYNEDQELPCPLGPGECYELHVHCKTSFVGYFPATVLWELLGPGESGSEGAGTFYIARFLAAVAHSPLAAQLKPMTPFKRTRITGNPVVTNRIEEGERPDRAKGYDLELSMALGTYYPPPRLRQLLPMLLQGTSIFTAPKEIAEIKAQLETALKWRNYEVKLRLLLHLEELQMEHDIRHYDLESVPMTWDPVDQNPRLLTLEVPGVTESRPSVLRGDHLFALLSSETHQEDPITYKGFVHKVELDRVKLSFSMSLLSRFVDGLTFKVNFTFNRQPLRVQHRALELTGRWLLWPMLFPVAPRDVPLLPSDVKLKLYDRSLESNPEQLQAMRHIVTGTTRPAPYIIFGPPGTGKTVTLVEAIKQVVKHLPKAHILACAPSNSGADLLCQRLRVHLPSSIYRLLAPSRDIRMVPEDIKPCCNWDAKKGEYVFPAKKKLQEYRVLITTLITAGRLVSAQFPIDHFTHIFIDEAGHCMEPESLVAIAGLMEVKETGDPGGQLVLAGDPRQLGPVLRSPLTQKHGLGYSLLERLLTYNSLYKKGPDGYDPQFITKLLRNYRSHPTILDIPNQLYYEGELQACADVVDRERFCRWAGLPRQGFPIIFHGVMGKDEREGNSPSFFNPEEAATVTSYLKLLLAPSSKKGKARLSPRSVGVISPYRKQVEKIRYCITKLDRELRGLDDIKDLKVGSVEEFQGQERSVILISTVRSSQSFVQLDLDFNLGFLKNPKRFNVAVTRAKALLIIVGNPLLLGHDPDWKVFLEFCKENGGYTGCPFPAKLDLQQGQNLLQGLSKLSPSTSGPHSHDYLPQEREGEGGLSLQVEPEWRNEL | binds

Source: publication PMC4441479
